# Some of the results follow.
# B1: DCIR1 (Mus musculus), Q9QZ15 (protein)
# chain: MASEITYAEVKFKNESNSLHTYSESPAAPREKPIRDLRKPGSPSLLLTSLMLLLLLLAITFLVAFIIYFQKYSQLLEEKKAAKNIMHNELNCTKSVSPMEDKVWSCCPKDWRLFGSHCYLVPTVSSSASWNKSEENCSRMGAHLVVIQSQEEQDFITGILDTHAAYFIGLWDTGHRQWQWVDQTPYEESITFWHNGEPSSGNEKCATIIYRWKTGWGWNDISCSLKQKSVCQMKKINL
# How the values were obtained:
# Test in all cases: glycan array binding signal (z-score within array); higher = stronger binding
# Conditions in all cases: glycan notation: IUPAC condensed, linker removed
# [1] = biological target: Neu5Ac(a2-3)Gal
# Outline: (§1)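 Arrays were curated from the Consortium for Functional Glycomics database, 3228 in total, and kept only where the protein sequence was available. Binding is expressed as a within-array Z-score. This score was averaged across arrays of the same protein sequence at different concentrations or buffers and across linkers, and negative values can be read as non-binding.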
# [2] = biological target: Neu5Ac(a2-3)Gal(b1-3)GalNAc
# Outline: as §1
# [3] = biological target: Neu5Ac(a2-3)Gal(b1-3)GalNAc(b1-3)Gal(a1-4)Gal(b1-4)Glc
# Outline: as §1
# [4] = biological target: Neu5Ac(a2-3)Gal(b1-3)GalNAc(b1-4)[Neu5Ac(a2-3)]Gal(b1-4)Glc
# Outline: as §1
# [5] = biological target: Neu5Ac(a2-3)Gal(b1-3)GalNAc(b1-4)[Neu5Ac(a2-8)Neu5Ac(a2-3)]Gal(b1-4)Glc
# Outline: as §1
# [6] = biological target: Neu5Ac(a2-3)Gal(b1-3)GalNAc6S
# Outline: as §1
# [7] = biological target: Neu5Ac(a2-3)Gal(b1-3)GlcNAc
# Outline: as §1
# [8] = biological target: Neu5Ac(a2-3)Gal(b1-3)GlcNAc(b1-2)Man
# Outline: as §1
# [9] = biological target: Neu5Ac(a2-3)Gal(b1-3)GlcNAc(b1-2)Man(a1-3)[GlcNAc(b1-4)][Neu5Ac(a2-3)Gal(b1-3)GlcNAc(b1-2)Man(a1-6)]Man(b1-4)GlcNAc(b1-4)GlcNAc
# Outline: as §1
# [10] = biological target: Neu5Ac(a2-3)Gal(b1-3)GlcNAc(b1-2)Man(a1-3)[Neu5Ac(a2-3)Gal(b1-3)GlcNAc(b1-2)Man(a1-6)]Man(b1-4)GlcNAc(b1-4)GlcNAc
# Outline: as §1
# [11] = biological target: Neu5Ac(a2-3)Gal(b1-3)GlcNAc(b1-3)Gal(b1-3)GlcNAc
# Outline: as §1
# [12] = biological target: Neu5Ac(a2-3)Gal(b1-3)GlcNAc(b1-3)Gal(b1-4)GlcNAc
# Outline: as §1
# [13] = biological target: Neu5Ac(a2-3)Gal(b1-3)GlcNAc(b1-3)GalNAc
# Outline: as §1
# [14] = biological target: Neu5Ac(a2-3)Gal(b1-3)GlcNAc(b1-4)Gal(b1-4)Glc
# Outline: as §1
# [15] = biological target: Neu5Ac(a2-3)Gal(b1-3)GlcNAc(b1-6)GalNAc
# Outline: as §1
# [16] = biological target: Neu5Ac(a2-3)Gal(b1-3)GlcNAc6S
# Outline: as §1
# [17] = biological target: Neu5Ac(a2-3)Gal(b1-3)[Fuc(a1-4)]GlcNAc
# Outline: as §1
# [18] = biological target: Neu5Ac(a2-3)Gal(b1-3)[Fuc(a1-4)]GlcNAc(b1-3)Gal(b1-3)[Fuc(a1-4)]GlcNAc
# Outline: as §1
# [19] = biological target: Neu5Ac(a2-3)Gal(b1-3)[Fuc(a1-4)]GlcNAc(b1-3)Gal(b1-4)[Fuc(a1-3)]GlcNAc
# Outline: as §1
# [20] = biological target: Neu5Ac(a2-3)Gal(b1-3)[GlcNAc(b1-6)]GalNAc
# Outline: as §1
# [21] = biological target: Neu5Ac(a2-3)Gal(b1-3)[Neu5Ac(a2-6)]GalNAc
# Outline: as §1
# [22] = biological target: Neu5Ac(a2-3)Gal(b1-3)[Neu5Ac(a2-6)]GlcNAc(b1-3)[Fuc(a1-3)[Gal(b1-4)]GlcNAc(b1-6)]Gal(b1-4)Glc
# Outline: as §1
# [23] = biological target: Neu5Ac(a2-3)Gal(b1-3)]Neu5Ac(a2-3)Gal(b1-4)]GlcNAc
# Outline: as §1
# [24] = biological target: Neu5Ac(a2-3)Gal(b1-4)Glc
# Outline: as §1
# [25] = biological target: Neu5Ac(a2-3)Gal(b1-4)GlcNAc
# Outline: as §1
# [26] = biological target: Neu5Ac(a2-3)Gal(b1-4)GlcNAc(b1-2)Man
# Outline: as §1
# [27] = biological target: Neu5Ac(a2-3)Gal(b1-4)GlcNAc(b1-2)Man(a1-3)[GlcNAc(b1-4)][Neu5Ac(a2-3)Gal(b1-4)GlcNAc(b1-2)Man(a1-6)]Man(b1-4)GlcNAc(b1-4)GlcNAc
# Outline: as §1
# [28] = biological target: Neu5Ac(a2-3)Gal(b1-4)GlcNAc(b1-2)Man(a1-3)[Neu5Ac(a2-3)Gal(b1-4)GlcNAc(b1-2)Man(a1-6)]Man(b1-4)GlcNAc(b1-4)GlcNAc
# Outline: as §1
# [29] = biological target: Neu5Ac(a2-3)Gal(b1-4)GlcNAc(b1-2)Man(a1-3)[Neu5Ac(a2-3)Gal(b1-4)GlcNAc(b1-2)Man(a1-6)]Man(b1-4)GlcNAc(b1-4)[Fuc(a1-6)]GlcNAc
# Outline: as §1
# [30] = biological target: Neu5Ac(a2-3)Gal(b1-4)GlcNAc(b1-2)Man(a1-3)[Neu5Ac(a2-6)Gal(b1-4)GlcNAc(b1-2)Man(a1-6)]Man(b1-4)GlcNAc(b1-4)GlcNAc
# Outline: as §1
# [31] = biological target: Neu5Ac(a2-3)Gal(b1-4)GlcNAc(b1-2)[Neu5Ac(a2-3)Gal(b1-4)GlcNAc(b1-4)]Man(a1-3)[GlcNAc(b1-4)][Neu5Ac(a2-3)Gal(b1-4)GlcNAc(b1-2)[Neu5Ac(a2-3)Gal(b1-4)GlcNAc(b1-6)]Man(a1-6)]Man(b1-4)GlcNAc(b1-4)GlcNAc
# Outline: as §1
# [32] = biological target: Neu5Ac(a2-3)Gal(b1-4)GlcNAc(b1-2)[Neu5Ac(a2-3)Gal(b1-4)GlcNAc(b1-4)]Man(a1-3)[GlcNAc(b1-4)][Neu5Ac(a2-3)Gal(b1-4)GlcNAc(b1-4)Man(a1-6)]Man(b1-4)GlcNAc(b1-4)GlcNAc
# Outline: as §1
# [33] = biological target: Neu5Ac(a2-3)Gal(b1-4)GlcNAc(b1-2)[Neu5Ac(a2-3)Gal(b1-4)GlcNAc(b1-6)]Man(a1-6)[Neu5Ac(a2-3)Gal(b1-4)GlcNAc(b1-2)Man(a1-3)]Man(b1-4)GlcNAc(b1-4)GlcNAc
# Outline: as §1
# [34] = biological target: Neu5Ac(a2-3)Gal(b1-4)GlcNAc(b1-2)[Neu5Ac(a2-3)Gal(b1-4)GlcNAc(b1-6)]Man(a1-6)[Neu5Ac(a2-3)Gal(b1-4)GlcNAc(b1-2)Man(a1-3)][GlcNAc(b1-4)]Man(b1-4)GlcNAc(b1-4)GlcNAc
# Outline: as §1
# [35] = biological target: Neu5Ac(a2-3)Gal(b1-4)GlcNAc(b1-3)Gal
# Outline: as §1
# [36] = biological target: Neu5Ac(a2-3)Gal(b1-4)GlcNAc(b1-3)Gal(b1-3)GlcNAc
# Outline: as §1
# [37] = biological target: Neu5Ac(a2-3)Gal(b1-4)GlcNAc(b1-3)Gal(b1-4)GlcNAc
# Outline: as §1
# [38] = biological target: Neu5Ac(a2-3)Gal(b1-4)GlcNAc(b1-3)Gal(b1-4)GlcNAc(b1-2)Man(a1-3)[Neu5Ac(a2-3)Gal(b1-4)GlcNAc(b1-3)Gal(b1-4)GlcNAc(b1-2)Man(a1-6)]Man(b1-4)GlcNAc(b1-4)GlcNAc
# Outline: as §1
# [39] = biological target: Neu5Ac(a2-3)Gal(b1-4)GlcNAc(b1-3)Gal(b1-4)GlcNAc(b1-3)Gal(b1-4)GlcNAc
# Outline: as §1
# [40] = biological target: Neu5Ac(a2-3)Gal(b1-4)GlcNAc(b1-3)Gal(b1-4)GlcNAc(b1-3)Gal(b1-4)GlcNAc(b1-2)Man(a1-3)[Neu5Ac(a2-3)Gal(b1-4)GlcNAc(b1-3)Gal(b1-4)GlcNAc(b1-3)Gal(b1-4)GlcNAc(b1-2)Man(a1-6)]GalNAc
# Outline: as §1
# [41] = biological target: Neu5Ac(a2-3)Gal(b1-4)GlcNAc(b1-3)Gal(b1-4)GlcNAc(b1-3)GalNAc
# Outline: as §1
# [42] = biological target: Neu5Ac(a2-3)Gal(b1-4)GlcNAc(b1-3)Gal(b1-4)GlcNAc(b1-3)[Neu5Ac(a2-3)Gal(b1-4)GlcNAc(b1-3)Gal(b1-4)GlcNAc(b1-6)]GalNAc
# Outline: as §1
# [43] = biological target: Neu5Ac(a2-3)Gal(b1-4)GlcNAc(b1-3)Gal(b1-4)GlcNAc(b1-6)[Gal(b1-3)]GalNAc
# Outline: as §1
# [44] = biological target: Neu5Ac(a2-3)Gal(b1-4)GlcNAc(b1-3)Gal(b1-4)[Fuc(a1-3)]GlcNAc
# Outline: as §1
# [45] = biological target: Neu5Ac(a2-3)Gal(b1-4)GlcNAc(b1-3)GalNAc
# Outline: as §1
binder,measurement,setting,value
B1,glycan array binding signal (z-score),[1],-0.397
same,glycan array binding signal (z-score),[2],0.347
same,glycan array binding signal (z-score),[3],-0.681
same,glycan array binding signal (z-score),[4],-0.868
same,glycan array binding signal (z-score),[5],-0.763
same,glycan array binding signal (z-score),[6],1.01
same,glycan array binding signal (z-score),[7],-0.908
same,glycan array binding signal (z-score),[8],0.337
same,glycan array binding signal (z-score),[9],-0.777
same,glycan array binding signal (z-score),[10],2.25
same,glycan array binding signal (z-score),[11],-0.604
same,glycan array binding signal (z-score),[12],-0.861
same,glycan array binding signal (z-score),[13],-0.401
same,glycan array binding signal (z-score),[14],1
same,glycan array binding signal (z-score),[15],0.265
same,glycan array binding signal (z-score),[16],-0.52
same,glycan array binding signal (z-score),[17],0.368
same,glycan array binding signal (z-score),[18],-0.952
same,glycan array binding signal (z-score),[19],-0.642
same,glycan array binding signal (z-score),[20],-0.657
same,glycan array binding signal (z-score),[21],-0.477
same,glycan array binding signal (z-score),[22],-0.766
same,glycan array binding signal (z-score),[23],-0.026
same,glycan array binding signal (z-score),[24],0.347
same,glycan array binding signal (z-score),[25],-0.596
same,glycan array binding signal (z-score),[26],1.09
same,glycan array binding signal (z-score),[27],-1.04
same,glycan array binding signal (z-score),[28],-0.829
same,glycan array binding signal (z-score),[29],-0.805
same,glycan array binding signal (z-score),[30],-1
same,glycan array binding signal (z-score),[31],-0.887
same,glycan array binding signal (z-score),[32],-1.1
same,glycan array binding signal (z-score),[33],0.375
same,glycan array binding signal (z-score),[34],-1.13
same,glycan array binding signal (z-score),[35],-1.17
same,glycan array binding signal (z-score),[36],-0.99
same,glycan array binding signal (z-score),[37],-0.797
same,glycan array binding signal (z-score),[38],-0.806
same,glycan array binding signal (z-score),[39],-0.844
same,glycan array binding signal (z-score),[40],1.55
same,glycan array binding signal (z-score),[41],-0.626
same,glycan array binding signal (z-score),[42],1.36
same,glycan array binding signal (z-score),[43],1.24
same,glycan array binding signal (z-score),[44],-0.586
same,glycan array binding signal (z-score),[45],-0.525

# A run of entries from further up, for reference:
binder,measurement,setting,value
B1,glycan array binding signal (z-score),[23],-0.026
same,glycan array binding signal (z-score),[24],0.347
same,glycan array binding signal (z-score),[25],-0.596
same,glycan array binding signal (z-score),[26],1.09

# Reference: the supplement of paper PMC8728848
